Data as given in PubChem BioAssay AID743121 (NCATS, 2013).

Purpose: 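Partners whose loss is lethal together with topoisomerase I blockade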 (primary screen)
Cells: MDA-MB-231 cells, a human breast cancer line
Reagent: single siRNA against human genes, 20 nM siRNA (0.8 pmol per well)
Time to read-out: 120 h (drug added 48 h after transfection, read 72 h later)
Conditions: camptothecin 20 nM (about EC30) for 72 h; vehicle 0.1% DMSO in parallel plates
Measurement: 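Cell viability by ATP luminescence (CellTiter-Glo) as % of non-targeting siRNA wells, and the log2 ratio of viability without drug over viability with camptothecin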
Direction: log2 vehicle/camptothecin viability: higher = stronger sensitisation to camptothecin; viability with camptothecin and viability without drug: higher = more viable cells
Active means: 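Each gene scored by redundant siRNA activity (RSA) over its individual siRNA ratios; a gene is called active at p < 0.001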
This is a random part of about 26,000 reagents tested. 167 of all reagents (0.63%) were called active. 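Calls are per gene from RSA p-values that are not deposited; an individual active-marked siRNA can sensitise only weakly.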 Reagents against one gene are numbered here.

| gene | siRNA no. | log2 vehicle/camptothecin viability | viability with camptothecin (% of control) | viability without drug (% of control) | Outcome |
| --- | --- | --- | --- | --- | --- |
| VPREB1 | 1 | -0.0157 | 97.7 | 96.7 | inactive |
| VPREB1 | 2 | -0.37 | 87.6 | 67.8 | inactive |
| VPREB1 | 3 | 0.107 | 47.3 | 51 | inactive |
| VPREB1 | 4 | -0.299 | 55.3 | 45 | inactive |
| SLC4A1 | 1 | -0.151 | 67.2 | 60.5 | inactive |
| SLC4A1 | 2 | -0.355 | 76 | 59.4 | inactive |
| SLC4A1 | 3 | 0.0836 | 70.2 | 74.4 | inactive |
| SLC4A1 | 4 | -0.174 | 46.2 | 40.9 | inactive |
| RPLP2 | 1 | -0.335 | 42.7 | 33.9 | inactive |
| RPLP2 | 2 | -0.219 | 34.6 | 29.8 | inactive |
| RPLP2 | 3 | -0.164 | 34.8 | 31.1 | inactive |
| KCNK7 | 1 | 0.427 | 49.7 | 66.8 | inactive |
| KCNK7 | 2 | 0.146 | 59.2 | 65.5 | inactive |
| KCNK7 | 3 | 0.0839 | 71.8 | 76.1 | inactive |
| PTGES3 | 1 | -0.0392 | 82.7 | 80.4 | inactive |
| PTGES3 | 2 | -0.244 | 107 | 90.1 | inactive |
| PLA2G2D | 1 | 0.212 | 77.4 | 89.6 | inactive |
| PLA2G2D | 2 | -0.0591 | 87.6 | 84.1 | inactive |
| PLA2G2D | 3 | 0.95 | 15.1 | 29.1 | inactive |
| PLA2G2D | 4 | -0.261 | 104 | 86.6 | inactive |
| TRAM1 | 1 | -0.343 | 108 | 85.5 | inactive |
| TRAM1 | 2 | 0.189 | 73.6 | 83.9 | inactive |
| TRAM1 | 3 | -0.0729 | 48 | 45.6 | inactive |
| TRAM1 | 4 | -0.0822 | 105 | 99.5 | inactive |
| RFXANK | 1 | -0.215 | 41 | 35.3 | inactive |
| RFXANK | 2 | 0.0529 | 92.2 | 95.6 | inactive |
| RFXANK | 3 | 0.41 | 46.3 | 61.5 | inactive |
| RFXANK | 4 | -0.147 | 91.6 | 82.8 | inactive |

Ordered by “viability without drug (% of control)” (highest first): 4 of the entries above.
| gene | siRNA no. | log2 vehicle/camptothecin viability | viability with camptothecin (% of control) | viability without drug (% of control) | Outcome |
| --- | --- | --- | --- | --- | --- |
| SLC4A1 | 3 | 0.0836 | 70.2 | 74.4 | inactive |
| SLC4A1 | 2 | -0.355 | 76 | 59.4 | inactive |
| SLC4A1 | 4 | -0.174 | 46.2 | 40.9 | inactive |
| RPLP2 | 1 | -0.335 | 42.7 | 33.9 | inactive |
